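Plate-reader measure of the Venus reporter marking one vaccinia stage in infected cells (the cell line is not named here); read time unknown.
The test concentration is not given here.
Percent change in Venus reporter signal; lower (more negative) values mean stronger inhibition of that viral stage.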

Values are in %.
How 0% and 100% were set is not given here.
Common to all entries: measured here: Venus reporter, other viral stage.
This is a side read-out of the assay, for part of the compounds, not drawn at random.

structure	activity change (Venus) (%)
C[C@@H]1CCCCO[C@H](CN(C)C(=O)NC2CCCCC2)[C@@H](C)CN([C@@H](C)CO)C(=O)c2cc(NC(=O)Cc3ccccc3)ccc2O1	-28.02
O=S(=O)(c1ccc(F)cc1)N1CCCCN2[C@H](CO)[C@H](c3ccc(C#CC4CCCC4)cc3)[C@@H]2C1	-46.33
Cc1ccc(-c2ccc([C@H]3[C@@H](CO)N4CCCCN(C(=O)c5ccc(F)cc5)C[C@H]34)cc2)cc1	-85.73
C[C@@H]1CN([C@@H](C)CO)S(=O)(=O)c2ccc(C3=CCCCC3)cc2O[C@H]1CN(C)Cc1ccccn1	-37.5
C[C@@H]1CN([C@@H](C)CO)C(=O)c2cc(-c3ccc(C#N)cc3)cnc2O[C@@H]1CN(C)C(=O)Nc1ccc(C(F)(F)F)cc1	-36.9
CCCC#Cc1ccc2c(c1)O[C@H](CN(C)C)[C@@H](C)CN([C@H](C)CO)S2(=O)=O	-21.65
COc1cccc(NC(=O)N(C)C[C@@H]2Oc3cc(C#Cc4ccncc4)ccc3S(=O)(=O)N([C@@H](C)CO)C[C@H]2C)c1	-42.98
C[C@H](CO)N1C[C@H](C)[C@H](CN(C)S(=O)(=O)c2cccc(F)c2)OCc2ccccc2-c2c(n(C)c3ccccc23)C1=O	-58.31
C[C@@H]1CN([C@@H](C)CO)C(=O)c2cc(NC(=O)c3ccccc3)ccc2O[C@@H](C)CCCCO[C@@H]1CN(C)Cc1ccc2c(c1)OCO2	-38.51
C[C@@H]1CN([C@H](C)CO)C(=O)c2cc(NC(=O)C3CCCCC3)ccc2O[C@@H](C)CCCCO[C@H]1CN(C)Cc1ccc2c(c1)OCO2	-52.59
COc1ccc(S(=O)(=O)N(C)C[C@H]2Oc3ccc(NC(=O)Nc4ccc(C(F)(F)F)cc4)cc3C(=O)N([C@@H](C)CO)C[C@H]2C)cc1	-31.1
C[C@@H]1CN([C@@H](C)CO)S(=O)(=O)c2ccc(-c3ccccc3F)cc2O[C@@H]1CN(C)Cc1cccnc1	-39.15
C[C@@H]1CCCCO[C@@H](CN(C)S(=O)(=O)c2ccc(F)cc2)[C@H](C)CN([C@@H](C)CO)C(=O)c2cc(NC(=O)c3ccccc3)ccc2O1	-33.18
C[C@H](CO)N1C[C@H](C)[C@@H](CN(C)S(=O)(=O)c2ccccc2)OCc2ccccc2-c2c(n(C)c3ccccc23)C1=O	-30.9
Cc1ccccc1S(=O)(=O)N1CC[C@@H]2[C@H](CO)Nc3ccc(C#Cc4ccccc4)cc3[C@@H]21	-34.07
O=C(c1ccc(F)cc1)N1CCCCN2[C@@H](CO)[C@@H](c3ccc(/C=C/c4ccccc4)cc3)[C@@H]2C1	-55.84
C[C@H]1CN([C@@H](C)CO)C(=O)c2cccc(NC(=O)Nc3ccc(C(F)(F)F)cc3)c2O[C@H]1CN(C)Cc1ccc(-c2ccccc2)cc1	-38.63
C[C@H]1CN([C@@H](C)CO)C(=O)Cc2cc(NS(=O)(=O)c3ccc(Cl)cc3)ccc2O[C@H]1CN(C)Cc1ccc(Cl)c(Cl)c1	-51.03
O=C(Nc1cc(F)ccc1F)N1CCCCN2[C@H](CO)[C@H](c3ccc(-c4ccccc4)cc3)[C@H]2C1	-78
CS(=O)(=O)N1Cc2cc(C(=O)NCC3CCCCC3)nc(-c3cccc(-c4cccnc4)c3)c2[C@@H]1CCO	-41.91
[N-]=[N+]=NCc1ccccc1C[C@@]1(C(=O)N2CCOCC2)N=C(c2ccc(OCCCO)cc2)O[C@@H]1c1ccccc1	-54.31
Cc1noc(C)c1NC(=O)Nc1ccc2c(c1)C(=O)N([C@H](C)CO)C[C@@H](C)[C@H](CN(C)Cc1ccc(Cl)c(Cl)c1)OCCCC[C@H](C)O2	-64.81
COc1ccccc1NC(=O)N1CC[C@@H]2[C@H]1c1cc(-c3ccccc3)ccc1N(C)[C@@H]2CO	-19.89
COc1ccc2c3c([nH]c2c1)[C@@H](CO)N(C(=O)CN(C)C)CC31CN(CC2CCCC2)C1	-39.69
Cc1ccc(-c2ccc([C@@H]3[C@@H](CO)N4CCCCN(S(=O)(=O)c5ccccc5C)C[C@H]34)cc2)cc1	-41.75
C[C@H](CO)N1C[C@H](C)[C@H](CN(C)Cc2cccnc2)Oc2cc(C#CC3CCCCC3)ccc2S1(=O)=O	-61.82
O=C(C1CC1)N1CC(=O)N2[C@@H](CO)[C@@H](c3ccc(C#Cc4cccc(F)c4)cc3)[C@@H]2C1	-23.1
COc1ccc(S(=O)(=O)Nc2cccc3c2O[C@H](CN(C)Cc2ccc(-c4ccccc4)cc2)[C@@H](C)CN([C@H](C)CO)C3=O)cc1	-25.75
Cc1ccc(S(=O)(=O)N(C)C[C@H]2Oc3cc(-c4cccc(F)c4)ccc3S(=O)(=O)N([C@@H](C)CO)C[C@@H]2C)cc1	-49.63
CS(=O)(=O)N1CC(=O)N2[C@H](C1)[C@@H](c1ccc(C#Cc3ccccc3)cc1)[C@@H]2CO	-29.26
Cc1ccc(S(=O)(=O)Nc2ccc3c(c2)C(=O)N([C@@H](C)CO)C[C@H](C)[C@H](CN(C)Cc2ccc4c(c2)OCO4)OCCCC[C@H](C)O3)cc1	-74.31
O=S(=O)(c1ccc(-c2ccccc2)cc1)N1CCN(Cc2cccc(OCCO)c2)CC1	-28.11
C[C@@H]1CN([C@@H](C)CO)C(=O)Cc2cc(NS(C)(=O)=O)ccc2O[C@H]1CN(C)Cc1ccc(Cl)c(Cl)c1	-50.99
CC(C)NC(=O)Nc1ccc2c(c1)C(=O)N([C@H](C)CO)C[C@@H](C)[C@@H](CN(C)Cc1ccc(Cl)c(Cl)c1)OCCCC[C@H](C)O2	-36.56
COc1ccc(S(=O)(=O)Nc2ccc3c(c2)C(=O)N([C@@H](C)CO)C[C@@H](C)[C@@H](CN(C)Cc2ccc(C(F)(F)F)cc2)OCCCC[C@H](C)O3)cc1	-49.46
O=C(c1ccc(F)cc1)N1C[C@@H]2N[C@H](C1)C2c1ccc(/C=C/c2ccccc2)cc1 (stereo partly specified)	-97.96
CN(C)CC(=O)N1CCCCN2[C@@H](CO)[C@@H](c3ccc(/C=C/c4ccccc4)cc3)[C@@H]2C1	-82.79
C[C@@H]1CN([C@H](C)CO)C(=O)c2cc(NS(=O)(=O)c3ccc(Cl)cc3)ccc2O[C@@H](C)CCCCO[C@@H]1CN(C)Cc1ccccc1	-81.25
C[C@@H]1CN([C@@H](C)CO)S(=O)(=O)c2ccc(C#CC3CCCC3)cc2O[C@H]1CN(C)Cc1cccnc1	-80.29
CCC(=O)N(C)C[C@H]1Oc2cc(C#Cc3ccncc3)ccc2S(=O)(=O)N([C@@H](C)CO)C[C@@H]1C	-21.14
COc1ccc(NC(=O)N2CC[C@@H]3[C@@H](CO)N(C)c4ccc(-c5ccc(F)cc5)cc4[C@@H]32)cc1	-62.65
N#C[C@@H]1[C@@H](c2ccc(C#CC3CCCC3)cc2)[C@@H](CO)N1C(=O)c1cccc(F)c1	-34.73
C[C@@H]1CN([C@H](C)CO)C(=O)Cc2cc(NC(=O)Nc3ccccc3)ccc2O[C@@H]1CN(C)Cc1ccc(C(F)(F)F)cc1	-23.89
C[C@H]1CCCCO[C@@H](CN(C)Cc2ccncc2)[C@@H](C)CN([C@@H](C)CO)C(=O)c2cc(NS(=O)(=O)c3ccc(Cl)cc3)ccc2O1	-33.6
COc1ccccc1C#Cc1ccc2c(c1)O[C@H](CN(C)C)[C@@H](C)CN([C@@H](C)CO)S2(=O)=O	-67.72
C[C@@H]1CCCCO[C@@H](CN(C)Cc2ccccc2)[C@H](C)CN([C@H](C)CO)C(=O)c2cc(NC(=O)Nc3ccc(C(F)(F)F)cc3)ccc2O1	-21.25
C[C@@H]1CN([C@H](C)CO)C(=O)c2ccccc2-c2ccccc2CO[C@@H]1CN(C)S(=O)(=O)c1ccc(Cl)cc1	-40.52
COc1ccc(-c2ccc([C@H]3[C@H]4CN(C(=O)Cc5ccncc5)CCCCN4[C@H]3CO)cc2)cc1	-72.67
N#Cc1ccc(-c2ccc3c(c2)[C@H]2[C@H](CCN2Cc2ccc4c(c2)OCO4)[C@H](CO)N3)cc1	-35.47
CC(C)CC#Cc1ccc2c(c1)O[C@H](CN(C)C(=O)C1CCC1)[C@H](C)CN([C@H](C)CO)S2(=O)=O	-30.51
Cc1ccc(S(=O)(=O)Nc2ccc3c(c2)C(=O)N([C@@H](C)CO)C[C@H](C)[C@H](CN(C)C(=O)C2CCCCC2)OCCCC[C@H](C)O3)cc1	-48.39
C[C@@H]1CN([C@@H](C)CO)C(=O)c2cc(NC(=O)C3CCCCC3)ccc2O[C@H]1CN(C)C	-24.47
C[C@H]1CN([C@@H](C)CO)S(=O)(=O)c2ccc(C#Cc3ccncc3)cc2O[C@@H]1CN(C)S(=O)(=O)c1ccccc1	-47.52
C[C@H](CO)N1C[C@H](C)[C@@H](CN(C)S(=O)(=O)c2ccc([N+](=O)[O-])cc2)OCc2ccccc2-c2c(n(C)c3ccccc23)C1=O	-48.28
Cc1ccc(-c2ccccc2[C@H]2[C@@H](C#N)N(C(=O)Cc3cccnc3)[C@H]2CO)cc1	-31.14
C[C@@H]1CN([C@H](C)CO)C(=O)Cc2cc(NC(=O)Nc3ccc(F)cc3)ccc2O[C@@H]1CN(C)S(=O)(=O)c1ccc(Cl)cc1	-33.68
C[C@H]1CN([C@@H](C)CO)C(=O)c2cccc(NS(=O)(=O)c3ccc(Cl)cc3)c2O[C@H]1CN(C)C(=O)Nc1ccc(F)cc1	-36.79
Cc1ccccc1S(=O)(=O)N1CC[C@@H]2[C@H]1c1cc(-c3cccc(C#N)c3)ccc1N(C)[C@H]2CO	-33.46

Once more, the final 7:

{"structure": "C[C@@H]1CN([C@@H](C)CO)C(=O)c2cc(NC(=O)C3CCCCC3)ccc2O[C@H]1CN(C)C", "activity change (Venus) (%)": "-24.47"}
{"structure": "C[C@H]1CN([C@@H](C)CO)S(=O)(=O)c2ccc(C#Cc3ccncc3)cc2O[C@@H]1CN(C)S(=O)(=O)c1ccccc1", "activity change (Venus) (%)": "-47.52"}
{"structure": "C[C@H](CO)N1C[C@H](C)[C@@H](CN(C)S(=O)(=O)c2ccc([N+](=O)[O-])cc2)OCc2ccccc2-c2c(n(C)c3ccccc23)C1=O", "activity change (Venus) (%)": "-48.28"}
{"structure": "Cc1ccc(-c2ccccc2[C@H]2[C@@H](C#N)N(C(=O)Cc3cccnc3)[C@H]2CO)cc1", "activity change (Venus) (%)": "-31.14"}
{"structure": "C[C@@H]1CN([C@H](C)CO)C(=O)Cc2cc(NC(=O)Nc3ccc(F)cc3)ccc2O[C@@H]1CN(C)S(=O)(=O)c1ccc(Cl)cc1", "activity change (Venus) (%)": "-33.68"}
{"structure": "C[C@H]1CN([C@@H](C)CO)C(=O)c2cccc(NS(=O)(=O)c3ccc(Cl)cc3)c2O[C@H]1CN(C)C(=O)Nc1ccc(F)cc1", "activity change (Venus) (%)": "-36.79"}
{"structure": "Cc1ccccc1S(=O)(=O)N1CC[C@@H]2[C@H]1c1cc(-c3cccc(C#N)c3)ccc1N(C)[C@H]2CO", "activity change (Venus) (%)": "-33.46"}

From PubChem BioAssay record AID1053133 (Broad Institute, 2014).